Reference: PubChem BioAssay AID1159595 (NIAID, 2016)
This is an unselected part of 756 deposited reagents. 115 of all reagents (15%) count as active. 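Active calls cover both lowered and raised reporter signal; each score refers to one siRNA rather than a whole gene.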 Reagents against one gene are numbered here. Reagent sequences are not shown. Not given: the amount of reagent.

Screen: 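Which toll-like receptor pathway genes macrophages need for Pam3CSK4-induced Tnf promoter activity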 (primary screen)
System: mouse RAW264.7 macrophage reporter cells
Knock-down reagent: single siRNA against mouse genes
Timing: assayed 48 to 72 hours after siRNA transfection; ligand applied for 16 hours
Treatment: Pam3CSK4 (TLR2 ligand) for 16 hours before fixation; dose not given
Measurement: 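Nuclear mCherry from a Tnf promoter reporter imaged after 16 h Pam3CSK4, 48–72 h post-transfection; background subtracted, plate median/MAD normalised, robust z-scores averaged over replicates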
Direction: Tnf reporter z-score (replicate mean): higher = stronger Tnf promoter reporter signal than negative control wells
Call rule: 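Calls apply to single siRNAs, not genes: activity graded at absolute z of 1, 1.5, 2 and 2.5, and active means averaged z at or beyond ±1.5, i.e. activity score 50 or above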
Meaning of the calls: active = strong change (up or down); inactive = little change

no.	gene knocked down	reagent	Tnf reporter z-score (replicate mean)	activity call
1	Mapk1	1	-1.17	inactive
2	Mapk1	2	-2.07	active
3	Mapk1	3	-2.22	active
4	Mapk1	4	-0.483	inactive
5	Mapk1	5	-0.0672	inactive
6	Mapk1	6	-0.425	inactive
7	Itgax	1	1.01	inactive
8	Itgax	2	-0.0601	inactive
9	Itgax	3	-1.17	inactive
10	Itgax	4	0.0481	inactive
11	Itgax	5	0.758	inactive
12	Itgax	6	0.345	inactive
13	Btk	1	-0.00431	inactive
14	Btk	2	-1.64	active
15	Btk	3	-0.762	inactive
16	Btk	4	-0.596	inactive
17	Btk	5	-0.645	inactive
18	Btk	6	0.144	inactive
19	Relb	1	-0.161	inactive
20	Relb	2	0.29	inactive
21	Relb	3	-1.5	active
22	Relb	4	0.836	inactive
23	Relb	5	-2.46	active
24	Relb	6	-1.29	inactive
25	Pik3r3	1	-1.57	active
26	Pik3r3	2	-0.114	inactive
27	Pik3r3	3	0.0674	inactive
28	Pik3r3	4	-0.394	inactive
29	Pik3r3	5	0.252	inactive
30	Pik3r3	6	-0.679	inactive
31	Cxcl11	1	-0.409	inactive
32	Cxcl11	2	-0.907	inactive
33	Cxcl11	3	0.605	inactive
34	Cxcl11	4	0.51	inactive
35	Cxcl11	5	-1.34	inactive
36	Cxcl11	6	-0.62	inactive
37	Tank	1	-1.43	inactive
38	Tank	2	1.47	inactive
39	Tank	3	0.548	inactive
40	Tank	4	0.58	inactive
41	Tank	5	1.3	inactive
42	Tank	6	0.366	inactive
43	Ly96	1	1.12	inactive
44	Ly96	2	-0.794	inactive
45	Ly96	3	-0.671	inactive
46	Ly96	4	0.546	inactive
47	Ly96	5	-0.243	inactive
48	Ly96	6	-0.674	inactive
49	Irak2	1	-0.923	inactive
50	Irak2	2	-1.8	active
51	Irak2	3	-1.8	active
52	Irak2	4	-1.48	inactive
53	Irak2	5	-1.71	active
54	Irak2	6	-1.93	active
55	Ifnb1	1	1.02	inactive
56	Ifnb1	2	-0.803	inactive
57	Ifnb1	3	-1.21	inactive
58	Ifnb1	4	1.27	inactive
59	Ifnb1	5	-0.951	inactive
60	Ifnb1	6	-1.1	inactive
61	Sp1	1	-1.02	inactive
62	Sp1	2	-1.3	inactive
63	Sp1	3	-2.37	active
64	Sp1	4	-1.54	active
65	Sp1	5	-0.791	inactive
66	Sp1	6	-1.86	active
67	Tbk1	1	-0.381	inactive
68	Tbk1	2	0.329	inactive
69	Tbk1	3	-0.322	inactive
70	Tbk1	4	0.274	inactive
71	Tbk1	5	0.473	inactive
72	Tbk1	6	1.14	inactive

In a second layout: 21 of the entries above
| gene knocked down | reagent | Tnf reporter z-score (replicate mean) | activity call |
| --- | --- | --- | --- |
| Btk | 2 | -1.64 | active |
| Btk | 3 | -0.762 | inactive |
| Btk | 4 | -0.596 | inactive |
| Btk | 5 | -0.645 | inactive |
| Btk | 6 | 0.144 | inactive |
| Relb | 1 | -0.161 | inactive |
| Relb | 2 | 0.29 | inactive |
| Relb | 3 | -1.5 | active |
| Relb | 4 | 0.836 | inactive |
| Relb | 5 | -2.46 | active |
| Relb | 6 | -1.29 | inactive |
| Pik3r3 | 1 | -1.57 | active |
| Pik3r3 | 2 | -0.114 | inactive |
| Pik3r3 | 3 | 0.0674 | inactive |
| Pik3r3 | 4 | -0.394 | inactive |
| Pik3r3 | 5 | 0.252 | inactive |
| Pik3r3 | 6 | -0.679 | inactive |
| Cxcl11 | 1 | -0.409 | inactive |
| Cxcl11 | 2 | -0.907 | inactive |
| Cxcl11 | 3 | 0.605 | inactive |
| Cxcl11 | 4 | 0.51 | inactive |

The list goes on.
no.	gene knocked down	reagent	Tnf reporter z-score (replicate mean)	activity call
73	Ifnar1	1	-1.13	inactive
74	Ifnar1	2	0.0381	inactive
75	Ifnar1	3	-0.986	inactive
76	Ifnar1	4	1.6	active
77	Ifnar1	5	-1.18	inactive
78	Ifnar1	6	-1.61	active
79	Tlr8	1	1.9	active
80	Tlr8	2	0.629	inactive
81	Tlr8	3	-0.159	inactive
82	Tlr8	4	0.592	inactive
83	Tlr8	5	-1.84	active
84	Tlr8	6	0.138	inactive
85	Irf7	1	-2	active
86	Irf7	2	-1.24	inactive
87	Irf7	3	-0.667	inactive
88	Irf7	4	0.935	inactive
89	Irf7	5	0.141	inactive
90	Irf7	6	0.00285	inactive
91	Elk4	1	-1.27	inactive
92	Elk4	2	0.529	inactive
93	Elk4	3	-0.652	inactive
94	Elk4	4	0.085	inactive
95	Elk4	5	-0.216	inactive
96	Elk4	6	-0.491	inactive
97	Tab2	1	-0.18	inactive
98	Tab2	2	-0.198	inactive
99	Tab2	3	-0.322	inactive
100	Tab2	4	-0.468	inactive
101	Tab2	5	-0.474	inactive
102	Tab2	6	-0.736	inactive
103	Map2k2	1	0.398	inactive
104	Map2k2	2	-0.813	inactive
105	Map2k2	3	-0.894	inactive
106	Map2k2	4	-0.694	inactive
107	Map2k2	5	-0.92	inactive
108	Map2k2	6	-1.11	inactive
109	Tlr9	1	-0.738	inactive
110	Tlr9	2	-1.33	inactive
111	Tlr9	3	1.3	inactive
112	Tlr9	4	-0.247	inactive
113	Tlr9	5	-1.67	active
114	Tlr9	6	-0.414	inactive
115	Ube2n	1	-0.248	inactive
116	Ube2n	2	-0.532	inactive
117	Ube2n	3	-0.536	inactive
118	Ube2n	4	-0.34	inactive
119	Ube2n	5	0.0938	inactive
120	Ube2n	6	-0.654	inactive
121	Jun	1	-1.26	inactive
122	Jun	2	-0.505	inactive
123	Jun	3	-0.0401	inactive
124	Jun	4	-0.399	inactive
125	Jun	5	-0.343	inactive
126	Jun	6	1.11	inactive
127	Irak4	1	0.0211	inactive
128	Irak4	2	-2.34	active
129	Irak4	3	-1.42	inactive
130	Irak4	4	-2.16	active
131	Irak4	5	-2.28	active
132	Irak4	6	-1.4	inactive
133	Akt2	1	-1.66	active
134	Akt2	2	-0.599	inactive
135	Akt2	3	-0.812	inactive
136	Akt2	4	-1.81	active
137	Akt2	5	-0.654	inactive
138	Akt2	6	-1.31	inactive
139	Irf3	1	1.23	inactive
140	Irf3	2	0.785	inactive
141	Irf3	3	-2.32	active
142	Irf3	4	-1.21	inactive
143	Irf3	5	-0.458	inactive
144	Irf3	6	0.387	inactive
